Data taken from article PMC9646764.
These are yes or no findings as the source states them, for the method shown.

Sequences of proteins named here, by UniProt entry; tags and fusion partners are left off. Residues count along the entry.
UniProt P10646, residues 29-209: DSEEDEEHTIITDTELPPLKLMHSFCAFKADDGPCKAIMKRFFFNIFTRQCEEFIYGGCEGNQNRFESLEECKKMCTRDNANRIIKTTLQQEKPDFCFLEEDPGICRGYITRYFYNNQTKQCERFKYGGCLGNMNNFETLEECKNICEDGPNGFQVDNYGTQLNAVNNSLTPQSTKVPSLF
UniProt O54819, residues 29-217: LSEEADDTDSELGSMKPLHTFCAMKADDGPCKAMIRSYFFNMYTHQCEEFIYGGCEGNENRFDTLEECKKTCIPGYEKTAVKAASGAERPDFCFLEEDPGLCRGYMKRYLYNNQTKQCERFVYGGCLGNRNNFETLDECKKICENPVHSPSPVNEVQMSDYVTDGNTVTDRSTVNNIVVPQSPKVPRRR
UniProt P18177: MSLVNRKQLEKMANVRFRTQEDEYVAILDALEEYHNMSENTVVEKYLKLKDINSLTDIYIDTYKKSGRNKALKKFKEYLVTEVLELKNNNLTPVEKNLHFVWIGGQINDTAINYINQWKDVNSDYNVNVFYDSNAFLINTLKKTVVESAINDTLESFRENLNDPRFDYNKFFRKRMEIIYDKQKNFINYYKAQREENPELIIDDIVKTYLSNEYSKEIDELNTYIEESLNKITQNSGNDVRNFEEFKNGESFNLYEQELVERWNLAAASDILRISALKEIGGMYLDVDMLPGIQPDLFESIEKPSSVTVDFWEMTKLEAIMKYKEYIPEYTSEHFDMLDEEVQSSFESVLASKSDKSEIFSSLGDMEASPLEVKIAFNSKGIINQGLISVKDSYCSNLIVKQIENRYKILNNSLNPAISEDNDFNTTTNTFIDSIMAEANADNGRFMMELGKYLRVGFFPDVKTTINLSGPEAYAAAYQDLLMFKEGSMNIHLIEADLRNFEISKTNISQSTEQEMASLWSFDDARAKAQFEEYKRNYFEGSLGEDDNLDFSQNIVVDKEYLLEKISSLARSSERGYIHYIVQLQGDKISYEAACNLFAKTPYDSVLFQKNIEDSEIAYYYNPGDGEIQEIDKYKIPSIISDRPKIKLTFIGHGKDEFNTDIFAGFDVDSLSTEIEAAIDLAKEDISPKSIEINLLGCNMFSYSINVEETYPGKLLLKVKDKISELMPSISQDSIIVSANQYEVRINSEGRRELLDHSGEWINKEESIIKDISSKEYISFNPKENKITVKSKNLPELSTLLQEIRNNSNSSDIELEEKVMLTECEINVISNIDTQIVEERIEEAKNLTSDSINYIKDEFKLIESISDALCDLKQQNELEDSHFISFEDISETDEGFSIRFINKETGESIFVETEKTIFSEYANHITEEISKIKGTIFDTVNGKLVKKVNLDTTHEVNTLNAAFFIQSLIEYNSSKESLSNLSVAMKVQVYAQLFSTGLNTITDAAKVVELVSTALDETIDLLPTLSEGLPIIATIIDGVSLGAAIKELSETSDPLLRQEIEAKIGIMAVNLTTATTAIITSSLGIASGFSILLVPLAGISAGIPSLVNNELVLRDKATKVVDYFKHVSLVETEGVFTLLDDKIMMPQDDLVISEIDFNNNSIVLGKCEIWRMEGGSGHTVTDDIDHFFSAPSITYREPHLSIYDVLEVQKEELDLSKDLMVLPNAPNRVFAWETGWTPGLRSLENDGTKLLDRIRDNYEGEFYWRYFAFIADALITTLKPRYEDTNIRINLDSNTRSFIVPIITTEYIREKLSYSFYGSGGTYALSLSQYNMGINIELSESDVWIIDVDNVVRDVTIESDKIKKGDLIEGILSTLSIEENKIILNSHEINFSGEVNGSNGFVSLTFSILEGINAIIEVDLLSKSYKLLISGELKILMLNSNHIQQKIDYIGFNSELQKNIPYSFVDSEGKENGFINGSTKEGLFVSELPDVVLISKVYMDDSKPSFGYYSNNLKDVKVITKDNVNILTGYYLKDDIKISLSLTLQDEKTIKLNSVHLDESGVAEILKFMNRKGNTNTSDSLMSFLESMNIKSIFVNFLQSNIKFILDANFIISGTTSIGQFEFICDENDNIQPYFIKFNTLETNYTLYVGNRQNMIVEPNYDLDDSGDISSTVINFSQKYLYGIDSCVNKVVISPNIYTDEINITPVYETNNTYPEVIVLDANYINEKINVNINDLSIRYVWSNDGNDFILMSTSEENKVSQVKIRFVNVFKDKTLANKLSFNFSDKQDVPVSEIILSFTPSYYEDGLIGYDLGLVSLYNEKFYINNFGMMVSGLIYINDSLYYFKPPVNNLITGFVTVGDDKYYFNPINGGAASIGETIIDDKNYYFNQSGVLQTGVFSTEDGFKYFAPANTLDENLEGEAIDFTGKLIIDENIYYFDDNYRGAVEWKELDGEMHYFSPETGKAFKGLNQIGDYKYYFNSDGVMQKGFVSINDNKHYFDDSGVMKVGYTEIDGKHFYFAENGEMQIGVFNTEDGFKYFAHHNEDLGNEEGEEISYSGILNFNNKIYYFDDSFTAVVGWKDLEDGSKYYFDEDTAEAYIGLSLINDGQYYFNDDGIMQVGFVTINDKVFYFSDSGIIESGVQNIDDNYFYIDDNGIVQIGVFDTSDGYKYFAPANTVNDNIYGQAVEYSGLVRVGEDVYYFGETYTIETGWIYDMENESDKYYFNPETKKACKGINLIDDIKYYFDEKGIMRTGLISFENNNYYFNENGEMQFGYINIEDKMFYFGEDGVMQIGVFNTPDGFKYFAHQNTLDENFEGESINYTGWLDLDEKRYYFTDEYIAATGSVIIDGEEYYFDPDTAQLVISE

What was measured:
[1] = target: TFPI-Fc (human IgG-Fc-tagged TFPI without the GPI anchor) (UniProt P10646); test: BLI; […] (10 ug/mL) […] (BLItz, ForteBio), […] (0.5% BSA); […]; dissociation in DPBS (0.5% BSA); both purified
[2] = target: mTFPI-Fc (Fc-tagged mouse TFPI) (mouse) (UniProt O54819); test: as above

TcdB1.1 (recombinant toxin B of reference strain VPI10463) (from UniProt P18177 1-2366)
binding [1]: no binding | binding [2]: no binding
